According to the supplement of paper PMC6078165:
± gives the standard deviation of the averaged measurements. The reference is the same well before dosing, and untreated signal decays as well.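 Labels refer to human fibroblasts, largely primary: uterine (C12385, HUF), lung (H6013), bone (Hs27A), adrenal (HADF), skin (WS1), plus mammary HMF and breast cancer-associated Hs343T. Cancer lines are basal-like or mesenchymal-like triple-negative breast cancer. The paper counts as hits responses shifting over 3x the replicate standard deviation. The tissue of the other fibroblasts is not given here.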

Tested on: MDAMB231
Test: relative JC-1 red fluorescence (viability) vs pre-drug, coculture with fibroblast (fraction); higher = more viable cancer cells
Procedure: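 JC-1 labelled TNBC cells cocultured 1:1 (1,500 cells each) with CellTrace Violet stained primary or stromal fibroblasts in 384-well plates in FluoroBrite medium, treated with one of 42 anticancer drugs at 0.1, 1, 10 or 100 uM. JC-1 red fluorescence (mitochondrial integrity in cancer cells only) was read by plate reader every 8 h for 72 h. Values are normalised to each well's pre-drug value. The stock of one drug was tenfold lower, so its dose labels may be too high.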

CC(C)C[C@H](NC(=O)[C@@H](COC(C)(C)C)NC(=O)[C@H](Cc1ccc(O)cc1)NC(=O)[C@H](CO)NC(=O)[C@H](Cc1c[nH]c2ccccc12)NC(=O)[C@H](Cc1cnc[nH]1)NC(=O)[C@@H]1CCC(=O)N1)C(=O)N[C@@H](CCCNC(=N)N)C(=O)N1CCC[C@H]1C(=O)NNC(N)=O [Goserelin]
relative JC-1 red fluorescence
Details | 8 h | 16 h | 24 h | 32 h | 40 h | 48 h | 56 h | 64 h | 72 h
10 µM, coculture fibroblast: C12385 | 0.807 ± 0.033 | 0.74 ± 0.035 | 0.71 ± 0.047 | 0.668 ± 0.064 | 0.619 ± 0.071 | 0.588 ± 0.077 | 0.546 ± 0.076 | 0.545 ± 0.083 | 0.529 ± 0.079
10 µM, coculture fibroblast: H6013 | 0.888 ± 0.017 | 0.833 ± 0.021 | 0.784 ± 0.016 | 0.753 ± 0.033 | 0.693 ± 0.036 | 0.666 ± 0.041 | 0.651 ± 0.039 | 0.629 ± 0.04 | 0.593 ± 0.043
10 µM, coculture fibroblast: H6019 | 0.771 ± 0.0097 | 0.693 ± 0.0093 | 0.6495 ± 0.001 | 0.602 ± 0.0073 | 0.547 ± 0.0078 | 0.521 ± 0.0087 | 0.4695 ± 0.0043 | 0.452 ± 0.0088 | 0.414 ± 0.007
10 µM, coculture fibroblast: H6076 | 0.883 ± 0.017 | 0.796 ± 0.022 | 0.728 ± 0.022 | 0.685 ± 0.025 | 0.642 ± 0.026 | 0.603 ± 0.034 | 0.562 ± 0.032 | 0.542 ± 0.034 | 0.538 ± 0.028
10 µM, coculture fibroblast: H6231 | 0.85 ± 0.049 | 0.873 ± 0.14 | 0.786 ± 0.11 | 0.727 ± 0.1 | 0.655 ± 0.086 | 0.615 ± 0.09 | 0.573 ± 0.071 | 0.55 ± 0.058 | 0.519 ± 0.041
10 µM, coculture fibroblast: HADF | 0.912 ± 0.021 | 0.8278 ± 0.0023 | 0.79008 ± 0.00074 | 0.754 ± 0.02 | 0.699 ± 0.022 | 0.657 ± 0.033 | 0.635 ± 0.036 | 0.609 ± 0.041 | 0.563 ± 0.042
10 µM, coculture fibroblast: HCFa | 0.8991 ± 0.0061 | 0.8326 ± 0.0066 | 0.798 ± 0.024 | 0.763 ± 0.037 | 0.707 ± 0.049 | 0.662 ± 0.045 | 0.645 ± 0.056 | 0.616 ± 0.043 | 0.58 ± 0.046
10 µM, coculture fibroblast: HCPF | 0.889 ± 0.027 | 0.786 ± 0.024 | 0.722 ± 0.017 | 0.691 ± 0.015 | 0.636 ± 0.0089 | 0.5978 ± 0.0029 | 0.5586 ± 0.0027 | 0.5238 ± 0.0022 | 0.508 ± 0.013
10 µM, coculture fibroblast: HHSteC | 0.89 ± 0.016 | 0.847 ± 0.013 | 0.798 ± 0.011 | 0.7448 ± 0.0065 | 0.69 ± 0.0096 | 0.652 ± 0.025 | 0.607 ± 0.022 | 0.58 ± 0.02 | 0.542 ± 0.021
10 µM, coculture fibroblast: HMF | 0.883 ± 0.026 | 0.792 ± 0.049 | 0.739 ± 0.031 | 0.694 ± 0.028 | 0.649 ± 0.026 | 0.618 ± 0.022 | 0.573 ± 0.016 | 0.552 ± 0.025 | 0.524 ± 0.019
10 µM, coculture fibroblast: HPFa | 0.952 ± 0.014 | 0.891 ± 0.011 | 0.842 ± 0.004 | 0.7751 ± 0.0076 | 0.738 ± 0.0085 | 0.684 ± 0.02 | 0.623 ± 0.013 | 0.583 ± 0.0071 | 0.52 ± 0.0095
10 µM, coculture fibroblast: HUF | 0.861 ± 0.031 | 0.724 ± 0.033 | 0.747 ± 0.037 | 0.622 ± 0.037 | 0.561 ± 0.042 | 0.545 ± 0.032 | 0.497 ± 0.035 | 0.488 ± 0.018 | 0.464 ± 0.02
10 µM, coculture fibroblast: Hs5 | 0.905 ± 0.041 | 0.818 ± 0.022 | 0.745 ± 0.023 | 0.695 ± 0.03 | 0.639 ± 0.032 | 0.58 ± 0.026 | 0.531 ± 0.01 | 0.501 ± 0.0058 | 0.473 ± 0.013
10 µM, coculture fibroblast: Hs27A | 0.903 ± 0.012 | 0.8286 ± 0.0077 | 0.79 ± 0.024 | 0.765 ± 0.025 | 0.696 ± 0.029 | 0.611 ± 0.02 | 0.616 ± 0.027 | 0.592 ± 0.019 | 0.543 ± 0.02
10 µM, coculture fibroblast: Hs343T | 0.886 ± 0.047 | 0.787 ± 0.072 | 0.764 ± 0.068 | 0.853 ± 0.1 | 0.75 ± 0.022 | 0.787 ± 0.14 | 0.811 ± 0.24 | 0.792 ± 0.24 | 0.769 ± 0.25
10 µM, coculture fibroblast: WS1 | 0.774 ± 0.022 | 0.715 ± 0.016 | 0.641 ± 0.051 | 0.599 ± 0.04 | 0.545 ± 0.032 | 0.517 ± 0.024 | 0.46 ± 0.026 | 0.436 ± 0.029 | 0.409 ± 0.033
100 µM, coculture fibroblast: C12385 | 0.7878 ± 0.0028 | 0.746 ± 0.016 | 0.704 ± 0.0092 | 0.664 ± 0.014 | 0.598 ± 0.0081 | 0.561 ± 0.0083 | 0.52 ± 0.014 | 0.518 ± 0.011 | 0.49 ± 0.016
100 µM, coculture fibroblast: H6013 | 0.9012 ± 0.0086 | 0.8447 ± 0.0016 | 0.819 ± 0.013 | 0.808 ± 0.018 | 0.769 ± 0.024 | 0.748 ± 0.012 | 0.741 ± 0.021 | 0.722 ± 0.017 | 0.685 ± 0.025
100 µM, coculture fibroblast: H6019 | 0.8 ± 0.0084 | 0.737 ± 0.02 | 0.72 ± 0.034 | 0.663 ± 0.032 | 0.616 ± 0.056 | 0.581 ± 0.075 | 0.515 ± 0.069 | 0.488 ± 0.076 | 0.446 ± 0.075
100 µM, coculture fibroblast: H6076 | 0.899 ± 0.021 | 0.826 ± 0.069 | 0.838 ± 0.14 | 0.837 ± 0.17 | 0.822 ± 0.2 | 0.798 ± 0.22 | 0.786 ± 0.23 | 0.781 ± 0.24 | 0.779 ± 0.26
100 µM, coculture fibroblast: H6231 | 0.928 ± 0.025 | 0.832 ± 0.019 | 0.773 ± 0.01 | 0.7291 ± 0.002 | 0.676 ± 0.01 | 0.645 ± 0.017 | 0.6 ± 0.019 | 0.585 ± 0.021 | 0.559 ± 0.035
100 µM, coculture fibroblast: HADF | 0.8994 ± 0.0016 | 0.854 ± 0.012 | 0.827 ± 0.016 | 0.782 ± 0.017 | 0.734 ± 0.022 | 0.69 ± 0.025 | 0.671 ± 0.021 | 0.648 ± 0.033 | 0.596 ± 0.024
100 µM, coculture fibroblast: HCFa | 0.89904 ± 0.00027 | 0.837 ± 0.018 | 0.801 ± 0.019 | 0.771 ± 0.02 | 0.718 ± 0.029 | 0.676 ± 0.013 | 0.6476 ± 0.0008 | 0.6229 ± 0.0054 | 0.57 ± 0.021
100 µM, coculture fibroblast: HCPF | 0.902 ± 0.025 | 0.798 ± 0.026 | 0.738 ± 0.012 | 0.711 ± 0.023 | 0.654 ± 0.022 | 0.614 ± 0.021 | 0.573 ± 0.03 | 0.544 ± 0.027 | 0.52 ± 0.026
100 µM, coculture fibroblast: HHSteC | 0.937 ± 0.0096 | 0.8708 ± 0.0079 | 0.824 ± 0.022 | 0.7797 ± 0.00069 | 0.728 ± 0.011 | 0.705 ± 0.018 | 0.662 ± 0.018 | 0.639 ± 0.024 | 0.586 ± 0.025
100 µM, coculture fibroblast: HMF | 0.9 ± 0.033 | 0.826 ± 0.048 | 0.773 ± 0.087 | 0.747 ± 0.083 | 0.697 ± 0.088 | 0.66 ± 0.092 | 0.619 ± 0.093 | 0.598 ± 0.09 | 0.574 ± 0.094
100 µM, coculture fibroblast: HPFa | 0.975 ± 0.012 | 0.9143 ± 0.0039 | 0.8561 ± 0.0067 | 0.793 ± 0.0091 | 0.742 ± 0.018 | 0.694 ± 0.023 | 0.633 ± 0.015 | 0.6 ± 0.022 | 0.531 ± 0.016
100 µM, coculture fibroblast: HUF | 0.87 ± 0.04 | 0.801 ± 0.072 | 0.822 ± 0.092 | 0.713 ± 0.1 | 0.657 ± 0.12 | 0.637 ± 0.13 | 0.58 ± 0.13 | 0.561 ± 0.14 | 0.533 ± 0.14
100 µM, coculture fibroblast: Hs5 | 0.88 ± 0.035 | 0.797 ± 0.012 | 0.7462 ± 0.0056 | 0.697 ± 0.0083 | 0.657 ± 0.017 | 0.604 ± 0.022 | 0.566 ± 0.011 | 0.541 ± 0.018 | 0.511 ± 0.018
100 µM, coculture fibroblast: Hs27A | 0.9174 ± 0.0012 | 0.874 ± 0.014 | 0.823 ± 0.0095 | 0.793 ± 0.01 | 0.737 ± 0.0094 | 0.67 ± 0.01 | 0.666 ± 0.0085 | 0.646 ± 0.0084 | 0.5934 ± 0.0009
100 µM, coculture fibroblast: Hs343T | 0.939 ± 0.046 | 0.84 ± 0.095 | 0.785 ± 0.11 | 0.762 ± 0.12 | 0.7 ± 0.12 | 0.657 ± 0.12 | 0.594 ± 0.13 | 0.578 ± 0.12 | 0.545 ± 0.13
100 µM, coculture fibroblast: WS1 | 0.7732 ± 0.0037 | 0.721 ± 0.008 | 0.667 ± 0.015 | 0.62072 ± 0.00034 | 0.575 ± 0.0058 | 0.5393 ± 0.00055 | 0.4948 ± 0.00026 | 0.48 ± 0.0054 | 0.4457 ± 0.00087
